The target in test [1] is myc-ΔCBD-ΔCT (Chi3L1 deleted of both CBD and CT regions) (UniProt P36222). Nature of the test: co-IP; A549 lung cancer cells transfected with myc-tagged Chi3L1 constructs; lysates immunoprecipitated with anti-Myc antibody and Protein A agarose, Western blot with anti-p53. On the technique in general: A western blot detects proteins with antibodies after separation by electrophoresis.

For test [2], the target named is Myc-tagged full-length Chi3L1 (Chitinase 3-like-1) (UniProt P36222). Described as above.
Test [3] has as its target endogenous Chi3L1 (human lung tissue) (human (endogenous in lung tissue)) (UniProt P36222). Nature of the test: co-IP; lysates of human lung cancer patient tissues and normal lung tissues immunoprecipitated with anti-Chi3L1 (or control IgG) and Protein A agarose, Western blot with anti-Chi3L1 and anti-p53.

These are yes or no findings as the source states them, for the method shown. In cells and extracts the contact can be indirect. Some entries that bind do so weakly or less than the wild type.

“endogenous p53 (A549 lung cancer cells) (from UniProt P04637 1-393)”: the values for the binding entry in test [1] and in test [2] were “no binding” and “binds”, respectively.
Regarding “endogenous p53 (human lung tissue) (from UniProt P04637 1-393)”, the binding result in test [3] is “binds”.
